From patent US20100081200A1, “FORMULATIONS AND METHODS FOR CULTURING STEM CELLS” (priority 2007, published 2010)
At least one structure is not confirmed: it was looked up by name or label, or the drawing left a doubt.

Tests used:
[1] = system: hESCs (HS401 cell line); experiment: Lipids and lipid derivatives: visual evaluation of morphology, size and thickness of undifferentiated colonies; assay type: cell-based, human; conditions: in both hES medium and the present culture medium
From the text: (§1) FIGS. 9A-9B show the morphology and differentiation stage of hESCs cultured in the present culture medium and in the presence of lipids and lipid derivatives. UD, PD and DIFF represent undifferentiated, partly differentiated and differentiated hESC colonies, respectively. FIG. 9A) HS401 cell line cultured in the present culture medium supplemented with different lipids and lipid derivatives. FIG. 9B) HS401 cell line cultured in control hES medium supplemented with different lipids and lipid derivatives.
Various lipids and lipid derivatives were tested in the culture medium (RegES) according to some embodiments of the present invention and in the conventional hES culture medium containing KO-SR (Knockout serum replacement, Invitrogen). General morphology, as well as the size and thickness of the undifferentiated colonies were evaluated before each passaging based on visual perceptions (Table 7).

[2] = system: hESC colonies (HS401 cell line); experiment: Lipids and lipid derivatives: classification of hESC colonies as undifferentiated, partly differentiated, differentiated; assay type: cell-based, human; conditions: in the present culture medium; compared to control hES or Albumax-RegES medium
From the text: as §1
Furthermore, the hESC colonies were classified into three categories; undifferentiated, partly differentiated and differentiated. Number of each colony type was calculated before each passaging. Later, a percentage value for each colony type of the total amount of colonies was calculated (FIG. 9).

[3] = system: stem cells; conditions: previously reported, Schuldiner et al.; cited from earlier work

Structure (SMILES)	morphology of the undifferentiated colonies (in words) [1]	number of undifferentiated and differentiated colonies [2]	effect on stem cells [3]
CC/C=C\C/C=C\C/C=C\C/C=C\C/C=C\CCCC(=O)O [Eicosapentaenoic acid]	improved the morphology	number of undifferentiated colonies increased and the number of differentiated colonies decreased	
CC1=C(/C=C/C(C)=C/C=C/C(C)=C/C(=O)O)C(C)(C)CCC1 [retinoic acid]			differentiation of stem cells
